Values quoted from earlier work as cited in PMC9321663, “The DevTox Germ Layer Reporter Platform: An Assay Adaptation of the Human Pluripotent Stem Cell Test” (Toxics, 2022).
Counter-ions that a name gives are not always drawn. Starred links: 1 amine or outer side, 2 acyl side, 3 side chain; linkers in the order of their positions; H or OH if unused. Positions of bridges follow the written chain, without caps; N, C: chain ends. Non-standard residues stand in square brackets, D forms with d. Residues, ends and D or L forms follow the SMILES beside them. Chains are numbered I, II in the order given. Actinocin(9to1) = Cc1c2oc3c(C)ccc(C(=O)[*:1])c3nc-2c(C(=O)[*:2])c(N)c1=O; NMeV = CN[C@H](C(=O)O)C(C)C; Sar = CNCC(=O)O

Conditions: developmental toxicant classification, hPST comparison chemical set; cited from earlier work

SMILES | DT Class.
CC1=C(/C=C/C(C)=C/C=C/C(C)=C\C(=O)O)C(C)(C)CCC1 | Pos
CC1=C(/C=C/C(C)=C/C=C/C(C)=C/C(=O)O)C(C)(C)CCC1 | Pos
O=c1[nH]c(=O)n([C@H]2C[C@H](O)[C@@H](CO)O2)cc1Br [5-Bromo-2’-deoxyuridine] | Pos
O=c1[nH]cc(F)c(=O)[nH]1 [5-Fluorouracil] | Pos
NC(=O)c1ccc(N)nc1 [6-Aminonicotinamide, 6−aminopyridine−3−carboxamide] | Pos
Cc1c2oc3c(C)ccc(C(=O)N[C@@H]4C(=O)N[C@H](C(C)C)C(=O)N5CCC[C@H]5C(=O)N(C)CC(=O)N(C)[C@@H](C(C)C)C(=O)O[C@@H]4C)c3nc-2c(C(=O)N[C@@H]2C(=O)N[C@H](C(C)C)C(=O)N3CCC[C@H]3C(=O)N(C)CC(=O)N(C)[C@@H](C(C)C)C(=O)O[C@@H]2C)c(N)c1=O [Actinomycin D] (I: T[dV]P[Sar][NMeV] / II: T[dV]P[Sar][NMeV]; ester I:1-I:C, II:1-II:C; linker I:N-II:N via Actinocin(9to1)) | Pos
CC(=O)Oc1ccccc1C(=O)O [Aspirin] | Neg
NC(=O)N1c2ccccc2C=Cc2ccccc21 [Carbamazepine] | Pos
Oc1cc(O)c2c(c1)O[C@H](c1ccc(O)c(O)c1)[C@@H](O)C2 [Cianidanol] | Neg
Cc1nc(Nc2ncc(C(=O)Nc3c(C)cccc3Cl)s2)cc(N2CCN(CCO)CC2)n1 [Dasatinib] | Pos
CC/C(=C(/CC)c1ccc(O)cc1)c1ccc(O)cc1 [Diethylstilbestrol] | Pos
c1cc(-c2cnn3cc(-c4ccc(OCCN5CCCCC5)cc4)cnc23)ccn1 [Dorsomorphin] | Pos
COc1cccc2c1C(=O)c1c(O)c3c(c(O)c1C2=O)C[C@@](O)(C(=O)CO)C[C@@H]3O[C@H]1C[C@H](N)[C@H](O)[C@H](C)O1 [Doxorubicin] | Pos
COc1ccc2nc([S@@+]([O-])Cc3ncc(C)c(OC)c3C)[nH]c2c1 [Esomeprazole] | Neg
O=C(c1ccc(F)cc1)C1CCN(CCn2c(=O)[nH]c3ccccc3c2=O)CC1 [Ketanserin] | Neg
C[C@](N)(Cc1ccc(O)c(O)c1)C(=O)O [Methyldopa] | Neg
CN1CCN2c3ccccc3Cc3ccccc3C2C1 (stereo not drawn) [Mianserin] | Pos
O=C(O)c1cccnc1 [Niacin, Nicotinic acid] | Neg
Cc1nc2sccn2c(=O)c1CCN1CCC(=C(c2ccc(F)cc2)c2ccc(F)cc2)CC1 [Ritanserin] | Pos
O=C1NS(=O)(=O)c2ccccc21 [Saccharin] | Neg
CNC(=O)c1cc(Oc2ccc(NC(=O)Nc3ccc(Cl)c(C(F)(F)F)c3)cc2)ccn1 [Sorafenib] | Pos
CCN(CC)CCNC(=O)c1c(C)[nH]c(/C=C2\C(=O)Nc3ccc(F)cc32)c1C [Sunitinib] | Pos
[H]/N=C(/NCCCCC)N/N=C/c1c[nH]c2ccc(OC)cc12 [Tegaserod Maleate] | Neg
O=C1CCC(N2C(=O)c3ccccc3C2=O)C(=O)N1 (stereo not drawn) [Thalidomide] | Pos
CCCC(CCC)C(=O)O [Valproic Acid] | Pos
COc1cc2c(Nc3ccc(Br)cc3F)ncnc2cc1OCC1CCN(C)CC1 [Vandetanib] | Pos
O=C1Cc2cc(CCN3CCN(c4nsc5ccccc45)CC3)c(Cl)cc2N1 [Ziprasidone] | Pos

Same assay, conditions: developmental toxicant classification, quickPredict comparison chemical set; cited from earlier work

SMILES | DT Class.
O=C1NC(=O)C(c2ccccc2)(c2ccccc2)N1 | Pos
CCCc1cc(=O)[nH]c(=S)[nH]1 | Pos
CC1=C(/C=C/C(C)=C/C=C/C(C)=C/C(=O)O)C(C)(C)CCC1 | Pos
CC(O)CO (stereo not drawn) [1,2-Propylene glycol] | Neg
O=c1[nH]cc(F)c(=O)[nH]1 [5-Fluorouracil] | Pos
CCCCc1oc2ccccc2c1C(=O)c1cc(I)c(OCCN(CC)CC)c(I)c1 [Amiodarone] | Pos
CC(=O)Oc1ccccc1C(=O)O [Aspirin] | Neg
CC(C)(c1ccc(O)cc1)c1ccc(O)cc1 [Bisphenol A] | Pos
OB(O)O [Boric acid] | Pos
CS(=O)(=O)OCCCCOS(C)(=O)=O [Busulfan] | Pos
CCCCOC(=O)c1ccc(O)cc1 [Butylparaben, 4−Hydroxybenzoic acid butyl ester] | Neg
NC(=O)N1c2ccccc2C=Cc2ccccc21 [Carbamazepine] | Pos
CC1=C2C[C@H]3[C@@H](CC=C4C[C@@H](O)CC[C@@]43C)[C@@H]2CC[C@]12O[C@@H]1C[C@H](C)CN[C@H]1[C@H]2C [Cyclopamine] | Pos
O=P1(N(CCCl)CCCl)NCCCO1 (stereo not drawn) [Cyclophosphamide] | Pos
Nc1ccn([C@@H]2O[C@H](CO)[C@@H](O)[C@@H]2O)c(=O)n1 [Cytarabine] | Pos
C[C@@H]1C[C@H]2[C@@H]3CCC4=CC(=O)C=C[C@]4(C)[C@@]3(F)[C@@H](O)C[C@]2(C)[C@@]1(O)C(=O)CO [Dexamethasone] | Pos
CC/C(=C(/CC)c1ccc(O)cc1)c1ccc(O)cc1 [Diethylstilbestrol] | Pos
COC(=O)c1ccccc1C(=O)OC [Dimethyl Phthalate] | Neg
NC(=O)NO [Hydroxyurea] | Pos
NNC(=O)c1ccncc1 [Isoniazid] | Neg
CC[C@H](C)C(=O)O[C@H]1C[C@@H](C)C=C2C=C[C@H](C)[C@H](CC[C@@H]3C[C@@H](O)CC(=O)O3)[C@H]21 [Lovastatin] | Pos
CCCCC(CC)COC(=O)c1ccccc1C(=O)O (stereo not drawn) [MEHP] | Pos
CN(Cc1cnc2nc(N)nc(N)c2n1)c1ccc(C(=O)N[C@@H](CCC(=O)O)C(=O)O)cc1 [Methotrexate] | Pos
CC1=C(/C=C/C(C)=C/C=C/C(C)=C/CO)C(C)(C)CCC1 [Retinol] | Neg
CO[C@H]1/C=C/O[C@@]2(C)Oc3c(C)c(O)c4c(O)c(c(/C=N/N5CCN(C)CC5)c(O)c4c3C2=O)NC(=O)/C(C)=C\C=C\[C@H](C)[C@H](O)[C@@H](C)[C@@H](O)[C@@H](C)[C@H](OC(C)=O)[C@@H]1C [Rifampicin] | Pos
O=C1NS(=O)(=O)c2ccccc21 [Saccharin] | Neg
O=C(O)c1ccccc1O [Salicylic Acid] | Neg
Cc1cn([C@H]2C=C[C@@H](CO)O2)c(=O)[nH]c1=O [Stavudine] | Pos
O=C1CCC(N2C(=O)c3ccccc3C2=O)C(=O)N1 (stereo not drawn) [Thalidomide] | Pos
CCCC(CCC)C(=O)O [Valproic Acid] | Pos
